Data on one sequence can be found in PMC8528721.

By UniProt entry, the sequences of proteins in these tests, tags left out.
UniProt P53566, whole entry: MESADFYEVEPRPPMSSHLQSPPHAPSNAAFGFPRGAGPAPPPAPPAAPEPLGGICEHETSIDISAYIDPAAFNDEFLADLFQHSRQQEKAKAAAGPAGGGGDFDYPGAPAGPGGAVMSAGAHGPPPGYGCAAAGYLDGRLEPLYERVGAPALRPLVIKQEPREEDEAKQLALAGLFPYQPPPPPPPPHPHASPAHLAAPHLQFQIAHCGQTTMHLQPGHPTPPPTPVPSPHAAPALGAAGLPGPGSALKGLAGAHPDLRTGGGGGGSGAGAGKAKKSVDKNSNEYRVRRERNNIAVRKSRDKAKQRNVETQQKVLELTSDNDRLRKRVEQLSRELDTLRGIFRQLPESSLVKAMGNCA

The exact form of at least one protein or probe is not confirmed. A weaker result is weaker than the reference pair of the same experiment.

This data set has as its target His-CEBPα (UniProt P53566). Briefly: EMSA. The conditions noted are these: increasing GST-Hop2, dose-dependent loss of the CEBPα-DNA complex; EMSA: 5 pmol probe, room temperature, 10 min; salt and pH not given (refs 36, 55); recombinant protein; protein details: His; label: 32P. In general terms: A gel shift assay detects complexes by their altered migration in electrophoresis.

In the case of “GATCTGCAGATTGCGCAATCTGCA / GATCTGCAGATTGCGCAATCTGCA [CEBP consensus palindrome probe]”, the binding result is on record as “binds more weakly”.
